Where two headings read alike, the source gives them in different places. No constants are given. Whether binding was seen depends on the method and setting. Binding seen in cells or lysates may run through a third protein. Here binding means that the protein was enriched with, or labelled near, the bait; the list need not be complete. For some assays here: A no says only that the protein was not detected with the bait.

Chains of the proteins cited; added tags and fusions are not shown.
UniProt A5D8V6: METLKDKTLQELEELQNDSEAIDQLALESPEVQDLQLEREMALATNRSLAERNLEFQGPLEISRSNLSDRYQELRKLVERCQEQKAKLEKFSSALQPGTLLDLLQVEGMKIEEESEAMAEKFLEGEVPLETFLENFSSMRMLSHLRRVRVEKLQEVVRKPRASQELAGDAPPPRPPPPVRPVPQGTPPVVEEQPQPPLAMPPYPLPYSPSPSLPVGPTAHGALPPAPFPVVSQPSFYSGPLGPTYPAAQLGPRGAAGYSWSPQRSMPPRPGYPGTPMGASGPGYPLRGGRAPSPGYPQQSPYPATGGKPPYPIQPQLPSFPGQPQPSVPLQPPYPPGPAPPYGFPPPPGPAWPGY
UniProt C9J7I0: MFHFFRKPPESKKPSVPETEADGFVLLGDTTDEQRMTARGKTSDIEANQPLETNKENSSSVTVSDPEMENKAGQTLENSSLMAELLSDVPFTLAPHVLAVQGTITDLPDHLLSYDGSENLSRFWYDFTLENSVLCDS
UniProt Q9UK41: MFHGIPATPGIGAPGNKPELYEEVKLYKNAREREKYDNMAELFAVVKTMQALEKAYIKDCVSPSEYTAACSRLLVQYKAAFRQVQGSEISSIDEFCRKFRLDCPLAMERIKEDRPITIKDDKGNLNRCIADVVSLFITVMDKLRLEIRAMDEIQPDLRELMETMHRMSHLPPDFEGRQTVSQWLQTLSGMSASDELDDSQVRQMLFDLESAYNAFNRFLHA
UniProt Q8NEZ2: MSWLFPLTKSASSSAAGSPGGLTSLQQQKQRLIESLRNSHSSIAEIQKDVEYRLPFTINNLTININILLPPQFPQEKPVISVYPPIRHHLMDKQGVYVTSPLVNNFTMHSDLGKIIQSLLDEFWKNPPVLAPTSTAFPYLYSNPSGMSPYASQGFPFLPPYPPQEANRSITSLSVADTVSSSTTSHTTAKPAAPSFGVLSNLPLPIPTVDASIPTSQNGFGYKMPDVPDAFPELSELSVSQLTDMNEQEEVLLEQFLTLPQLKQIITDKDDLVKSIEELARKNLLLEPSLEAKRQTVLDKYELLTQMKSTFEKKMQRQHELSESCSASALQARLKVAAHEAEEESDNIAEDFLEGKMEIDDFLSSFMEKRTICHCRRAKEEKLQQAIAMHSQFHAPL

These results are taken from publication PMC10445733.

Test [1] has as its target YFP–VPS37C (UniProt A5D8V6). Briefly: affinity purification with mass spectrometry; GFP-trap of YFP–TSG101 or YFP–VPS37C from lysates of stably expressing HeLa cells (YFP–TSG101 also in HeLa^ΔUMAD1), IP-TMT quantitative MS; TMT reporter ion ratio ≥2 over unfused YFP defined specific associations.
The next test addresses YFP–UMAD1 (human) (UniProt C9J7I0). Briefly: affinity purification with mass spectrometry; GFP-trap of YFP–UMAD1 stably re-expressed in HeLa^ΔUMAD1 and 293T^ΔUMAD1 cells, IP-TMT quantitative MS against unfused YFP.
In test [2] the target is YFP–TSG101 (UniProt Q99816). Briefly: affinity purification with mass spectrometry; GFP-trap of YFP–TSG101 or YFP–VPS37C from lysates of stably expressing HeLa cells (YFP–TSG101 also in HeLa^ΔUMAD1), IP-TMT quantitative MS; TMT reporter ion ratio ≥2 over unfused YFP defined specific associations.
The target in test [3] is YFP–TSG101 (UniProt Q99816). The description is as above. This is another data set of the same source.
Test [4] concerns the target YFP–VPS37C (UniProt A5D8V6). The test is described as above. The source holds these as a separate data set.

Turning to “endogenous MVB12A (from UniProt Q96EY5 1-273)”, the binding result with YFP–VPS37C [1] is listed as “binds”; with YFP–UMAD1 (human), “no binding”.

As to “endogenous TSG101 (from UniProt Q99816 1-390)”, the binding entry with YFP–UMAD1 (human) is “binds”.

Regarding “endogenous UMAD1 (from UniProt C9J7I0 1-137)”, the binding entry in the test with YFP–TSG101 [2] and with YFP–VPS37C [1] was “binds” throughout.

For “endogenous VPS28 (from UniProt Q9UK41 1-221)”, the binding entry in the test with YFP–VPS37C [1] and with YFP–UMAD1 (human) was “binds” each time.

Take “endogenous VPS37A (from UniProt Q8NEZ2 1-397)”: the results for the binding result in the test with YFP–TSG101 [2], with YFP–VPS37C [1] and with YFP–UMAD1 (human) were “binds”, “no binding” and “no binding”, respectively.

Turning to “endogenous VPS37C (from UniProt A5D8V6 1-355)”, the binding result in the test with YFP–TSG101 [2] and with YFP–UMAD1 (human) was “binds” each time.

B1: endogenous CEP55 (protein, UniProt Q53EZ4 1-464)
chain: MSSRSTKDLIKSKWGSKPSNSKSETTLEKLKGEIAHLKTSVDEITSGKGKLTDKERHRLLEKIRVLEAEKEKNAYQLTEKDKEIQRLRDQLKARYSTTTLLEQLEETTREGERREQVLKALSEEKDVLKQQLSAATSRIAELESKTNTLRLSQTVAPNCFNSSINNIHEMEIQLKDALEKNQQWLVYDQQREVYVKGLLAKIFELEKKTETAAHSLPQQTKKPESEGYLQEEKQKCYNDLLASAKKDLEVERQTITQLSFELSEFRRKYEETQKEVHNLNQLLYSQRRADVQHLEDDRHKTEKIQKLREENDIARGKLEEEKKRSEELLSQVQFLYTSLLKQQEEQTRVALLEQQMQACTLDFENEKLDRQHVQHQLHVILKELRKARNQITQLESLKQLHEFAITEPLVTFQGETENREKVAASPKSPTAALNESLVECPKCNIQYPATEHRDLLVHVEYCSK
Regarding B1, the binding result with YFP–TSG101 [3], in the test with YFP–VPS37C [4] and with YFP–UMAD1 (human) was “binds” throughout.

B2: endogenous UBAP1 (protein, UniProt Q9NZ09 1-502)
chain: MASKKLGADFHGTFSYLDDVPFKTGDKFKTPAKVGLPIGFSLPDCLQVVREVQYDFSLEKKTIEWAEEIKKIEEAEREAECKIAEAEAKVNSKSGPEGDSKMSFSKTHSTATMPPPINPILASLQHNSILTPTRVSSSATKQKVLSPPHIKADFNLADFECEEDPFDNLELKTIDEKEELRNILVGTTGPIMAQLLDNNLPRGGSGSVLQDEEVLASLERATLDFKPLHKPNGFITLPQLGNCEKMSLSSKVSLPPIPAVSNIKSLSFPKLDSDDSNQKTAKLASTFHSTSCLRNGTFQNSLKPSTQSSASELNGHHTLGLSALNLDSGTEMPALTSSQMPSLSVLSVCTEESSPPNTGPTVTPPNFSVSQVPNMPSCPQAYSELQMLSPSERQCVETVVNMGYSYECVLRAMKKKGENIEQILDYLFAHGQLCEKGFDPLLVEEALEMHQCSEEKMMEFLQLMSKFKEMGFELKDIKEVLLLHNNDQDNALEDLMARAGAS
As to B2, the binding result is given as “binds” in the test with YFP–TSG101 [3] and “no binding” in the test with YFP–UMAD1 (human).
